According to patent US20250011391A1, “ULTRA LIGHT-SENSITIVE NEUROPSIN-BASED OPTOGENETIC TOOL FOR ACTIVATING G q-COUPLED SIGNALING AND/OR ACTIVATING CELLS” (GENANS BIOTECHNOLOGY CO., LTD, priority 2021, published 2025):

Assays:
[1] = test system: Gq signaling in HEK 293T cells; assay: Light-induced Ca2+ signal (Calbryte 630 AM dye) in opsin-expressing HEK 293T cells; assay type: cell-based; conditions: for Stimulation duration / Wavelength λmax (nm): Table 8
Protocol: Whether heterologous expression of the Opn5 orthologs from chicken, turtles, humans and mice (which share 80-90% protein sequence identity) have the capacity to mediate blue light-induced Gq signaling activation within HEK 293T cells is tested (FIG. 1a and table 7). Blue light for stimulation and the red intracellular calcium indicator Calbryte™ 630 AM dye are used to monitor the relative Ca^2+ response (FIG. 1b).
b, Pseudocolor images of the Ca2+ signal before and after blue light stimulation (10 s; 100 μW/mm^2; 488 nm) in HEK 293T cells expressing Opn5 from three species (Gallus gallus, Homo sapiens, and Mus musculus). Scale bar, 10 μm.
Characterizing the light-activating properties of cOpn5 heterologously expressed in HEK 293T cells is performed. […] The effects of different light durations on cOpn5-expressing HEK 293T cells are tested. […] Therefore, the light sensitivity of cOpn5 is 3-4 orders of magnitude higher than the reported values of the light-sensitive Gq-coupled GPCRs and even 2-3 orders higher than those of the commonly used optogenetic tool Channelrhodopsin-2 (ChR2)(Lin, 2011; Zhang et al., 2006) (table 8).
The performance of cOpn5 to that of opto-a1AR, a chimera GPCR engineered by mixing rhodopsin with Gq-coupled adrenergic receptor is compared. […] The performance of cOpn5 to that of opn4, a natural opsin which was reported as a tool for Gq signaling activating is also compared. […] Therefore, compared with existing opsin-based tools (opto-a1AR and opn4), cOpn5 is much more light-sensitive (˜3 orders more sensitive), requires much shorter time exposure (10 ms vs. 60 s), and produces stronger responses. […]
Experiments description: the following table 9 is a partial list of cOpn5 orthologs from vertebrata tested in the present invention. Whole genes of all reported opsin5 orthologs from vertebrata (the vertebrates subphylum, including rotundia, cartilaginous fishes, bony fishes, Amphibia, reptila, ornitha and mammals) are synthetized, and expressed in HEK 293T cells. Calcium imaging with or without 470 nm blue light stimulation is performed to test the sensitivity of the opsin 5 orthologs in response to light. The time course of light-induced calcium signal reveal the activated degree of Gq signaling pathway and the sensitivity of these orthologs.

in vivo astrocytes = conditions: cited from earlier work
HEK293-TRPC3 cells = conditions: cited from earlier work

B1: human melanopsin: a natural opsin (melanopsin, Opn4) reported as a tool for Gq signaling activating (protein)
chain: MNPPSGPRVPPSPTQEPSCMATPAPPSWWDSSQSSISSLGRLPSISPTAPGTWAAAWVPLPTVDVPDHAHYTLGTVILLVGLTGMLGNLTVIYTFCRSRSLRTPANMFIINLAVSDFLMSFTQAPVFFTSSLYKQWLFGETGCEFYAFCGALFGISSMITLTAIALDRYLVITRPLATFGVASKRRAAFVLLGVWLYALAWSLPPFFGWSAYVPEGLLTSCSWDYMSFTPAVRAYTMLLCCFVFFLPLLIIIYCYIFIFRAIRETGRALQTFGACKGNGESLWQRQRLQSECKMAKIMLLVILLFVLSWAPYSAVALVAFAGYAHVLTPYMSSVPAVIAKASAIHNPIIYAITHPKYRVAIAQHLPCLGVLLGVSRRHSRPYPSYRSTHRSTLTSHTSNLSWISIRRRQESLGSESEVGWTHMEAAAVWGAAQQANGRSLYGQGLEDLEAKAPPRPQGHEAETPGKTKGLIPSQDPRM
Need for exogeneous chemicals(retinal) ([1]; HEK 293T): ATR
Stimulation duration ([1]; HEK 293T): 25 s
Wavelength λmax (nm) ([1]; HEK 293T): 470 nm
Wavelength λmax (nm) (in vivo astrocytes): 473 nm

B2: mouse melanopsin (Opn4): mouse melanopsin, literature optogenetic tool in Table 8 (protein, UniProt Q9QXZ9 1-521, looked up)
Melanopsin: MDSPSGPRVLSSLTQDPSFTTSPALQGIWNGTQNVSVRAQLLSVSPTTSAHQAAAWVPFPTVDVPDHAHYTLGTVILLVGLTGMLGNLTVIYTFCRNRGLRTPANMFIINLAVSDFLMSVTQAPVFFASSLYKKWLFGETGCEFYAFCGAVFGITSMITLTAIAMDRYLVITRPLATIGRGSKRRTALVLLGVWLYALAWSLPPFFGWSAYVPEGLLTSCSWDYMTFTPQVRAYTMLLFCFVFFLPLLIIIFCYIFIFRAIRETGRACEGCGESPLRQRRQWQRLQSEWKMAKVALIVILLFVLSWAPYSTVALVAFAGYSHILTPYMSSVPAVIAKASAIHNPIIYAITHPKYRVAIAQHLPCLGVLLGVSGQRSHPSLSYRSTHRSTLSSQSSDLSWISGRKRQESLGSESEVGWTDTETTAAWGAAQQASGQSFCSQNLEDGELKASSSPQVQRSKTPKVPGPSTCRPMKGQGARPSSLRGDQKGRLAVCTGLSECPHPHTSQFPLAFLEDDVTLRHL
Need for exogeneous chemicals(retinal) (HEK293-TRPC3 cells): 11-cis-
Stimulation duration (HEK293-TRPC3 cells): >60 s
Wavelength λmax (nm) (HEK293-TRPC3 cells): 480 nm

B3: cOpn5: Chicken (Gallus gallus) Opn5 (neuropsin) ortholog, SEQ ID NO:1, GenBank NM_001130743.1 (protein, listed as Gallus lafayetii)
chain: MSGMASDCNSSSQEEYLPHYVQQEDPFASKLSREADIIAGFYLTVIGILSTLGNGYVIFMSSKRKKKLRPAEIMTVNLAVCDLGISVVGKPFSIISFFSHRWIFGWMGCRWYGWAGFFFGCGSLITMTAVSLDRYLKICHLAYGTWLKRHHAFICLALIWAYATFWATVPFAGVGSYAPEPFGTSCTLDWWLAQASVAGQAFVLSILFFCLLFPTAVIVFSYVKIILKVKSSTKEVAHYDTRIQNSHILEMKLTKVAMLICAGFLIAWIPYAVVSVWSAFGQPDSVPIQFSVVPTLLAKSAAMYNPIIYQVIDCKFACCRSGGPKTLQKKSSLKESRMYTLSSHRDSAALSGTQLEV
Need for exogeneous chemicals(retinal) ([1]; HEK 293T): endogenous retinal is sufficient and No
Wavelength λmax (nm) ([1]; HEK 293T): 470 nm
Stimulation duration ([1]; HEK 293T cells, 0.026 μW/mm2): >2 s
Stimulation duration ([1]; HEK 293T cells, 16 μW/mm2): 0.01 s
